# Measurements reported in PubChem BioAssay AID1224828 (NIAID, 2016).
# Screen: 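Regulators linking TLR4 signalling to p65 nuclear translocation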 (primary screen)
# Cells: mouse RAW264.7 G9 macrophage reporter cells (GFP-p65, Tnf promoter-mCherry)
# Reagent: siRNA pool against mouse genes, 100 nM
# Time to read-out: 2 days siRNA transfection, then 40 min LPS before fixation
# Conditions: LPS (Salmonella minnesota R595) at 10 ng/ml
# Measurement: 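Imaged p65 nuclear translocation ratio, normalised to the plate median, converted to robust z-scores and averaged across two replicates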
# Direction: p65 translocation robust z-score: higher = more nuclear NF-kappaB p65 after LPS than the plate median; nuclear/cytoplasmic p65 ratio: higher = more nuclear NF-kappaB p65
# Call rule: 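Called active when z exceeds 3.3 or falls under -1.56 (median of Tlr4 controls), giving activity score of at least 50; no calls for control wells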
# Calls: active = hit (p65 shift raised or lowered); inactive = no clear change
# Shown is one part, drawn at random, of about 17,000 reagents tested. 762 of all reagents (4.5%) count as active. 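Active calls include both raised and lowered p65 entry, mostly lowered; wells with fewer than 50 cells lack a z-score.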 Raw values vary from plate to plate and are shown uncorrected.
Target gene,p65 translocation robust z-score,"nuclear/cytoplasmic p65 ratio, rep 1","nuclear/cytoplasmic p65 ratio, rep 2",low cell count flag,Call
Gm11545,-0.22,1.36,1.48,enough cells to score,inactive
Cd276,,1.13,0.944,fewer than 50 cells per well; well left out of scoring,inactive
Cpne6,-0.32,1.57,1.68,enough cells to score,inactive
Rab26,1.6,1.76,1.6,enough cells to score,inactive
Plpp1,0,1.46,1.44,enough cells to score,inactive
Eola1,1.53,1.72,1.66,enough cells to score,inactive
Colec10,-0.14,1.74,1.49,enough cells to score,inactive
Plekhb2,-0.34,1.35,1.17,enough cells to score,inactive
Parp1,0.45,1.56,1.81,enough cells to score,inactive
Cacna1c,0.09,1.63,1.63,enough cells to score,inactive
Samd4b,1.91,1.73,1.75,enough cells to score,inactive
Optc,-0.06,1.61,1.24,enough cells to score,inactive

Reformatted: 2 of the entries above
| Target gene | p65 translocation robust z-score | nuclear/cytoplasmic p65 ratio, rep 1 | nuclear/cytoplasmic p65 ratio, rep 2 | low cell count flag | Call |
| --- | --- | --- | --- | --- | --- |
| Colec10 | -0.14 | 1.74 | 1.49 | enough cells to score | inactive |
| Plekhb2 | -0.34 | 1.35 | 1.17 | enough cells to score | inactive |

Next results:
Target gene,p65 translocation robust z-score,"nuclear/cytoplasmic p65 ratio, rep 1","nuclear/cytoplasmic p65 ratio, rep 2",low cell count flag,Call
Garin5b,,1.12,1.35,fewer than 50 cells per well; well left out of scoring,inactive
Trmt11,-0.74,1.3,1.37,enough cells to score,inactive
Mrpl2,-0.63,1.75,1.44,enough cells to score,inactive
Klk1b1,1.66,1.77,1.67,enough cells to score,inactive
Ldaf1,-0.41,1.37,1.6,enough cells to score,inactive
Luzp1,1.73,1.9,1.87,enough cells to score,inactive
Gpr3,,1.37,1.48,fewer than 50 cells per well; well left out of scoring,inactive
Npl,0.92,1.9,1.62,enough cells to score,inactive
A330035P11Rik,1.91,1.48,1.79,enough cells to score,inactive
Spata17,,1.23,0,fewer than 50 cells per well; well left out of scoring,inactive
Ephx1,-0.85,1.42,1.25,enough cells to score,inactive
Smarcc2,-0.52,1.54,1.53,enough cells to score,inactive
